No constants are given. Whether binding was seen depends on the method and setting. Some binding calls cover weakened binding; strength is not graded here.
Target: T1, human BMP15 (native, in female serum sample #6) (human) (UniProt O95972)
T1 sequence: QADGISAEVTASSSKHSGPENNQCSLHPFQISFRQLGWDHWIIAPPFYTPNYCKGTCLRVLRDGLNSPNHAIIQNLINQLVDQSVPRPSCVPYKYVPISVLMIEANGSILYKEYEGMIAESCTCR
Experiment: gel filtration HPLC of female serum #6, fractions measured by GDF9, BMP15 and Cumulin ELISAs (one common peak, 70-90 k)

binding: binds
B1: human GDF9 (native, in female serum sample #6) (ligand)
chain: GQETVSSELKKPLGPASFNLSEYFRQFLLPQNECELHDFRLSFSQLKWDNWIVAPHRYNPRYCKGDCPRAVGHRYGSPVHTMVQNIIYEKLDSSVPRPSCVPAKYSPLSVLTIEPDGSIAYKEYEDMIATKCTCR
